This note sets out measurements from PMC7515736.

The series relates to SEP3 (SEPALLATA3) + AG (AGAMOUS). In words: EMSA. Conditions: tetramer, almost no tetramers bound; EMSA as in the authors' ref. 20 (buffer, salt, pH, temperature not given); Cy5 probes; unpurified wheat germ TnT proteins; protein translated in vitro; protein details: C-terminal 3xFLAG,C-terminal 5xMyc; label: Cy5.

Construct, isoform or probe ends are uncertain for at least one entry. Weaker means in comparison with the reference protein, sequence or condition of that experiment.

Regarding “AGAGAAACATAGAAACCTTCCATGTTTGGCAATTTCATCTTGGAAGTCAGCTTGATTCACTCTCTCTTGTCTTCTTTGTGCATCACAAGAACAACA (double strand) [KNU +5 (96 bp)]”, the binding result is “binds more weakly”. To “GGTAAGAGAAACATAGAAACCTTCCATGTTTGGCAATTTCATCTTGGAAGTCAGCTTGATTCACTCTCTCTTGTCTTCTTTGTGCATCACAAGAACAACAA (double strand) [KNU +5 probe (101 bp)]” belongs “binds more weakly”; to “GGTAAGAGAAACATAGAAACCTTCCATGTTTGGCAATTTCATCTTGGAACTTACTCTCTCTTGTCTTCTTTGTGCATCACAAGAACAACAA (double strand) [KNU -5 probe (91 bp)]”, “binds more weakly”; to “AGAGGGTAAGAGAAACATAGAAACCTTCCATGTTTGGCAATTTCATCTTGGAACTTACTCTCTCTTGTCTTCTTTGTGCATCACAAGAACAACAAA (double strand) [KNU -5 (96 bp)]”, “binds more weakly”.
